Reference: article PMC12894930
No constants are given. Whether binding was seen depends on the method and setting. Binding seen in cells or lysates may run through a third protein. Binding can be weak; no strength is given.

The chains behind the UniProt entries cited, without tags or fusion partners. Where a name states a change or a piece, a line headed by the entry shows the natural chain unless it says otherwise.
UniProt Q5TC12: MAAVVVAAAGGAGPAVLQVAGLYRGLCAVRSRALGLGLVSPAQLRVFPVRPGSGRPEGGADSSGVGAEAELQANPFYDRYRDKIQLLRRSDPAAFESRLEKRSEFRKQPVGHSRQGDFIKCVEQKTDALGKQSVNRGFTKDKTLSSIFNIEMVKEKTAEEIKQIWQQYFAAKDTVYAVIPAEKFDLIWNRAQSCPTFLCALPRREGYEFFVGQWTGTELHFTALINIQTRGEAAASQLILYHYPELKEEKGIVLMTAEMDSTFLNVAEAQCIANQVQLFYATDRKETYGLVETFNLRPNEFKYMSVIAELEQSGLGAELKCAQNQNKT

Experiments:
3xFLAG-ATPAF1 (human) = 3xFLAG-ATPAF1 (human) (UniProt Q5TC12); experiment: co-IP; myc-SHP2, c-Src and FLAG-ATPAF1 co-transfected in SHP2 KO HEK 293 cells; lysis in 20 mM Tris-HCl pH 8.0, 137 mM NaCl, 2 mM EDTA, 10% glycerol, 0.5% NP-40; FLAG-beads 30 min at room temperature; blot for SHP2
[1] = biological target: 3xFLAG-ATPAF1 Y23F (human) (UniProt Q5TC12); experiment: as above

myc-SHP2^WT (from UniProt Q06124-2 1-593) (enzyme)
binding (3xFLAG-ATPAF1 (human)): binds
binding [1]: binds
